{"source": "PubChem BioAssay AID1259405, NCATS, 2018", "assay": "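Mouse-designed siRNAs used to find CHO productivity engineering targets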 (primary screen)", "cell system": "Chinese hamster CHO-K1 ovary cells with stable secreted eGFP expression", "reagent": "single siRNA against mouse genes, 0.8 pmol siRNA per well (2 µl of 400 nM stock)", "duration": "3 days", "detection": "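Per-well intracellular GFP measured by laser scanning cytometry, plus viability from ATP luminescence, each relative to plate median of non-targeting control wells, in %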", "reading the numbers": "GFP, % of control: higher = more GFP per well, higher productivity; viability (ATP), % of control: higher = more viable cells (more ATP)", "rule for the call": "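a knock-down is called active if GFP reaches 120% or more of non-targeting control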", "note": "The whole screen tested about 50,000 reagents; below is a part drawn at random. In the full data, about 4,000 (8%) were called active. 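Mouse siRNA library applied to hamster cells; one well for each siRNA.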 Unmarked entries are inactive. Reagents against one gene are numbered here. Reagent sequences are not shown."}
{"target gene":"Atp5f1c (ATP synthase F1 subunit gamma)","reagent no.":1,"GFP, % of control":107,"viability (ATP), % of control":67.2}
{"target gene":"Atp5f1c (ATP synthase F1 subunit gamma)","reagent no.":2,"GFP, % of control":65.8,"viability (ATP), % of control":77.8}
{"target gene":"Atp5f1c (ATP synthase F1 subunit gamma)","reagent no.":3,"GFP, % of control":47.6,"viability (ATP), % of control":61.1}
{"target gene":"Zfp54 (zinc finger protein 54)","reagent no.":1,"GFP, % of control":37.5,"viability (ATP), % of control":56.4}
{"target gene":"Zfp54 (zinc finger protein 54)","reagent no.":2,"GFP, % of control":73.6,"viability (ATP), % of control":71.1}
{"target gene":"Zfp54 (zinc finger protein 54)","reagent no.":3,"GFP, % of control":83.1,"viability (ATP), % of control":67.2}
{"target gene":"Clec2i (C-type lectin domain family 2, member i)","reagent no.":1,"GFP, % of control":89.3,"viability (ATP), % of control":60.9}
{"target gene":"Clec2i (C-type lectin domain family 2, member i)","reagent no.":2,"GFP, % of control":76.1,"viability (ATP), % of control":82.9}
{"target gene":"Clec2i (C-type lectin domain family 2, member i)","reagent no.":3,"GFP, % of control":118,"viability (ATP), % of control":91.2}
{"target gene":"Tmigd3 (transmembrane and immunoglobulin domain containing 3)","reagent no.":1,"GFP, % of control":"147 (active)","viability (ATP), % of control":42.8}
{"target gene":"Tmigd3 (transmembrane and immunoglobulin domain containing 3)","reagent no.":2,"GFP, % of control":65.9,"viability (ATP), % of control":33.6}
{"target gene":"Tmigd3 (transmembrane and immunoglobulin domain containing 3)","reagent no.":3,"GFP, % of control":"128 (active)","viability (ATP), % of control":134}

Records listed so far marked active (2):
{"target gene":"Tmigd3 (transmembrane and immunoglobulin domain containing 3)","reagent no.":1,"GFP, % of control":"147 (active)","viability (ATP), % of control":42.8}
{"target gene":"Tmigd3 (transmembrane and immunoglobulin domain containing 3)","reagent no.":3,"GFP, % of control":"128 (active)","viability (ATP), % of control":134}

Next records follow:
{"target gene":"Slc15a4","reagent no.":1,"GFP, % of control":106,"viability (ATP), % of control":96.7}
{"target gene":"Slc15a4","reagent no.":2,"GFP, % of control":51.7,"viability (ATP), % of control":82.2}
{"target gene":"Slc15a4","reagent no.":3,"GFP, % of control":78.6,"viability (ATP), % of control":89.5}
{"target gene":"Ccdc66 (coiled-coil domain containing 66)","reagent no.":1,"GFP, % of control":77.8,"viability (ATP), % of control":83.7}
{"target gene":"Ccdc66 (coiled-coil domain containing 66)","reagent no.":2,"GFP, % of control":116,"viability (ATP), % of control":103}
{"target gene":"Ccdc66 (coiled-coil domain containing 66)","reagent no.":3,"GFP, % of control":95.6,"viability (ATP), % of control":61}
{"target gene":"Vps33b (vacuolar protein sorting 33B)","reagent no.":1,"GFP, % of control":88.1,"viability (ATP), % of control":72.3}
{"target gene":"Vps33b (vacuolar protein sorting 33B)","reagent no.":2,"GFP, % of control":66.8,"viability (ATP), % of control":73.2}
{"target gene":"Vps33b (vacuolar protein sorting 33B)","reagent no.":3,"GFP, % of control":60.8,"viability (ATP), % of control":88.4}
{"target gene":"Hoxa4 (homeobox A4)","reagent no.":1,"GFP, % of control":108,"viability (ATP), % of control":87.4}
{"target gene":"Hoxa4 (homeobox A4)","reagent no.":2,"GFP, % of control":69.3,"viability (ATP), % of control":76.5}
{"target gene":"Lgi1 (leucine-rich repeat LGI family, member 1)","reagent no.":1,"GFP, % of control":115,"viability (ATP), % of control":62.1}
{"target gene":"Lgi1 (leucine-rich repeat LGI family, member 1)","reagent no.":2,"GFP, % of control":61.3,"viability (ATP), % of control":80.8}
{"target gene":"Lgi1 (leucine-rich repeat LGI family, member 1)","reagent no.":3,"GFP, % of control":84.8,"viability (ATP), % of control":83.9}
{"target gene":"Pla2g15 (phospholipase A2, group XV)","reagent no.":1,"GFP, % of control":107,"viability (ATP), % of control":107}
{"target gene":"Pla2g15 (phospholipase A2, group XV)","reagent no.":2,"GFP, % of control":65.3,"viability (ATP), % of control":77.2}
{"target gene":"Pla2g15 (phospholipase A2, group XV)","reagent no.":3,"GFP, % of control":61.6,"viability (ATP), % of control":61.7}
